Results are given in words; binding and its absence hold for the method and conditions named. For some of these results: Binding seen in cells or lysates may run through a third protein. Some binding calls cover weakened binding; strength is not graded here. Where a sequence is shown, tags or fusion partners need not be part of it.

Assay [1] has as its target T1, TAK1 expressed from yeast 2-hybrid expression vector pBTMHu11F (Homo sapiens (Human)) (UniProt O43318).
T1 sequence: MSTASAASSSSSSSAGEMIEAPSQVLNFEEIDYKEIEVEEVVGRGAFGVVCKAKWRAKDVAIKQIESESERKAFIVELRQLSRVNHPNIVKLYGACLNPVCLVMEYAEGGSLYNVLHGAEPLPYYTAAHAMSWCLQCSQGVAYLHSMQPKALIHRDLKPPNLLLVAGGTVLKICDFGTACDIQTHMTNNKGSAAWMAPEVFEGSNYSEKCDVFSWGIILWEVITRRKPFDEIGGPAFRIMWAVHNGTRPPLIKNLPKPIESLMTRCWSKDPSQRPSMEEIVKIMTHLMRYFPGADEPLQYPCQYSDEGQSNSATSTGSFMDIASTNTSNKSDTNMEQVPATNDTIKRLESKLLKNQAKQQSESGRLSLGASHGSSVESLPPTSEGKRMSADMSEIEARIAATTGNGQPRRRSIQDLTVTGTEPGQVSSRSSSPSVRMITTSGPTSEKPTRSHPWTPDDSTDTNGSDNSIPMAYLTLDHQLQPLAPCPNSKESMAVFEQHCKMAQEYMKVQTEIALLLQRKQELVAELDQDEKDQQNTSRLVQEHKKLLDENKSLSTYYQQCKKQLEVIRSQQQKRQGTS
Nature of the assay: yeast 2-hybrid method.

Assay [2] addresses T2, recombinant human TAK1-6×His polypeptide (human) (UniProt O43318).
T2 sequence: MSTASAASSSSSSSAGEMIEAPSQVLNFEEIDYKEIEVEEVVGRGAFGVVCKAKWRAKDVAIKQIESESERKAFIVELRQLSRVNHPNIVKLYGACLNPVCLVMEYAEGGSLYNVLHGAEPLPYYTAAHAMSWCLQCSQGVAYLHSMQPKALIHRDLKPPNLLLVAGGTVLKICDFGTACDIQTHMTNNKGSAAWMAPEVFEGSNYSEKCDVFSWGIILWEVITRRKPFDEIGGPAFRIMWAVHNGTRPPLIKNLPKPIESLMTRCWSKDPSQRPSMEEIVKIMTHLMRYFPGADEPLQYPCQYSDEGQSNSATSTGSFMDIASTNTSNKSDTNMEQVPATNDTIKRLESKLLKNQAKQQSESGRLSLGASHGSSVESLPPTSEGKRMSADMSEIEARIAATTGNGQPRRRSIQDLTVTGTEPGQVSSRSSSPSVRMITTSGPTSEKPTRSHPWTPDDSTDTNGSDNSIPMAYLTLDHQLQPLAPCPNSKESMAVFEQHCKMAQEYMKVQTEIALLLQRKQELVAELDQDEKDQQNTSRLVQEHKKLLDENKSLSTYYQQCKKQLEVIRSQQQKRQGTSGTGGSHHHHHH
The assay can be described thus: co-immunoprecipitation with anti-TAK1 antibody from mixed COS-7 cell extracts, Western analysis with anti-FLAG M2 antibody.

Assay [3] concerns the target T2, recombinant human TAK1-6×His polypeptide (human). Nature of the assay: ELISA, TAK1-6×His immobilised (100 ng per well), detection with rabbit anti-MBP antiserum, absorbance at 405 nm. For orientation: ELISA stands for enzyme-linked immunosorbent assay.
For assay [4] the target is unchanged. The assay can be described thus: ELISA, legend of FIG. 2.
Assay [5] shares this target. The assay can be described thus: ELISA on plate-immobilised TAK1-6×His, absorbance at 405 nm; control wells without TAK1.

B1: TAB1C68, fusion with the GAL4 transcription activated domain (pGAD-TAB1) (protein, not shown: large carriers)
chain: QSPTLTLQSTNTHTQSSSSSSDGGLFRSRPAHSLPPGEDGRVEPYVDFAEFYRLWSVDHGEQSVVTAP
In the case of B1, the binding result in assay [1] is “binds”.

B2: FLAG-TAB1 (protein)
chain: MDYKDDDDKMAAQRRSLLQSEQQPSWTDDLPLCHLSGVGSASNRSYSADGKGTESHPPEDSWLKFRSENNCFLYGVFNGYDGNRVTNFVAQRLSAELLLGQLNAEHAEADVRRVLLQAFDVVERSFLESIDDALAEKASLQSQLPEGVPQHQLPPQYQKILERLKTLEREISGGAMAVVAVLLNNKLYVANVGTNRALLCKSTVDGLQVTQLNVDHTTENEDELFRLSQLGLDAGKIKQVGIICGQESTRRIGDYKVKYGYTDIDLLSAAKSKPIIAEPEIHGAQPLDGVTGFLVLMSEGLYKALEAAHGPGQANQEIAAMIDTEFAKQTSLDAVAQAVVDRVKRIHSDTFASGGERARFCPRHEDMTLLVRNFGYPLGQMSQPTPSPAPAAGGRVYPVSVPYSSAQSTSKTSVTLSLVMPSQGQMVNGAHSASTLDEATPTLTNQSPTLTLQSTNTHTQSSSSSSDGGLFRSRPAHSLPPGEDGRVEPYVDFAEFYRLWSVDHGEQSVVTAP
Take B2: in assay [2], the binding entry is “binds”.

B3: recombinant MBP-TAB1C-FLAG polypeptide (protein, not shown: large carriers)
chain: ASTLDEATPTLTNQSPTLTLQSTNTHTQSSSSSSDGGLFRSRPAHSLPPGEDGRVEPYVDFAEFYRLWSVDHGEQSVVTAPDYKDDDDK
With B3, the binding result in assay [3], in assay [4] and in assay [5] was “binds” each time.
With GLFRSRPAHSLPPGEDGRVEPYVDFAEFYRLWSVDHGEQSVVTAP (peptide, not shown: large carriers) [TAB1C45, fusion with the GAL4 transcription activated domain (pGAD-TAB1C45)], the binding entry in assay [1] is “binds”.
RPAHSLPPGEDGRVEPYVDFAEFYRLWSVDHGEQSVVTAP (peptide, not shown: large carriers) [TAB1C40, fusion with the GAL4 transcription activated domain (pGAD-TAB1C40)]: in assay [1], the binding result is recorded as “binds”.

(Values after patent US20030162228A1.)
